Assay results as given in PubChem BioAssay AID485353 (National Center for Advancing Translational Sciences (NCATS), 2010).
Among all 330,000 compounds or so, about 610 (0.18%) were called active. The inconclusive results got no clear call from the source; some entries with a clear call stand among them for comparison. The call rests on the fitted dose curve. Potencies of inconclusive entries are doubtful fits and often do not repeat.

Test: qHTS of Yeast-based Assay for SARS-CoV PLP; further: nearly all actives have a fitted effect of over 55% in size; on activity, positive = growth rescue: 0% is about no effect
Conditions: S. cerevisiae expressing SARS-CoV PLpro; Potency: growth rescue; activity, positive = growth rescue: at 32.9 µM (top of the series)
Potency means the concentration at half of the fitted maximal effect.

Compound | Potency | activity, positive = growth rescue
CCOc1ccc(NC(=O)CCC(=O)N2CCSc3ccccc32)cc1 | inconclusive: 20 µM [activator, single point] | 
CCCC(=O)Nc1nc2ccc3nc(C)sc3c2s1 |  | inactive: -0.603%
CCCNC(=O)COC(=O)c1[nH]c(C)c(C(=O)OCC)c1C |  | inactive: 6.03%
CCCCCC(=O)NC(NC(=S)N1CCOCC1)C(Cl)(Cl)Cl (stereo unspecified) | inconclusive: 2.82 µM [activator, full curve, poor fit] | 
CCOC(=O)C(C(=O)N1CCOCC1)C1CCCCC1 (stereo unspecified) | inconclusive: 4.47 µM [activator, single point] | 
Cn1c(C23CC4CC(CC(C4)C2)C3)n[nH]c1=S | active: 12.6 µM | 
CCOc1ccc(CCNC(=O)COC(=O)/C=C/c2ccco2)cc1OCC | inconclusive: 14.1 µM [activator, single point] | 
Cc1cc(-c2ccc(C)c(S(=O)(=O)Nc3cc(C)on3)c2)on1 |  | inactive: 3.59%
CCOc1ccc(Br)cc1C(=O)N/N=C/c1cccnc1 |  | inactive: -2.68%
CN(Cc1ccccc1)c1nc2nonc2nc1N1CCCC(CN2CCCC2=O)C1 (stereo unspecified) |  | inactive: 5.09%
CCOC(=O)c1c(C)c(C(=O)Nc2ccc(N(C)C)cc2)c(C)n1CC | inconclusive: 4.47 µM [activator, partial curve] | 
CC(=O)c1cccc(NC(=O)c2ccc(C(=O)Nc3cccc(C(C)=O)c3)nc2)c1 |  | inactive: -1.09%
CC(C)C(=O)Nc1ccc(NC(=O)c2ccco2)cn1 |  | inactive: -1.09%
CC(C)Cn1c(SCC(=O)N2CCN(C(=O)c3ccco3)CC2)nc2ccccc2c1=O |  | inactive: 0.801%
Cc1ccc(S(=O)(=O)n2nc(OC(=O)c3ccccc3C)cc2N)cc1 |  | inactive: 3.71%
CCOc1ccc(N(CC(=O)N2CCCC2)S(=O)(=O)c2ccc(F)cc2)cc1 | inconclusive: 4.47 µM [activator, single point] | 
O=S(=O)(NCCc1cn2ccccc2n1)c1ccc2c(c1)OCCO2 | inconclusive: 3.98 µM [activator, single point] | 
CCN1CCN(c2nc3c(c(=O)[nH]c(=O)n3C)n2CCSc2nc3ccccc3s2)CC1 | inconclusive: 3.98 µM [activator, single point] | 
COc1ccc(O)c(/C=N/NC(=O)c2ccc(N3CCCC3=O)cc2)c1 |  | inactive: 1.71%
CN(C(=O)c1cc2ccccc2cc1O)C1CCCCC1 |  | inactive: -3.5%
COc1cc(C(c2oc(CO)cc(=O)c2O)c2oc(CO)cc(=O)c2O)cc(OC)c1OC | inconclusive: 2.51 µM [activator, full curve] | 
CSc1nnc(C)c(=O)n1COC(=O)c1ccc(S(=O)(=O)N2CCCC2)cc1 |  | inactive: 2.62%
Cc1cc(C)n(-c2ccc(C(=O)NCc3ccc4c(c3)OCO4)cc2)n1 |  | inactive: -1.66%
Fc1ccc(NC(=S)Nc2ccc(Cl)cc2)cc1 |  | inactive: -5.78%

Compound | Potency | activity, positive = growth rescue
O=C(NNC(=S)NC1CCCCC1)c1cccc(S(=O)(=O)Nc2ccccc2Cl)c1 | inconclusive: 3.55 µM [activator, partial curve, poor fit] | 
COC(=O)c1ccc(N2C(=O)CC(SCCN)C2=O)cc1 (stereo unspecified) |  | inactive: -25.9%
O=C(Nc1cccc(F)c1)c1ccc(-c2ccccc2C(F)(F)F)o1 |  | inactive: -43.3%
Nc1ccccc1-c1nnc2n1CCCCC2 |  | inactive: -5.97%
Cn1cc(C(=O)NS(=O)(=O)Nc2ccc(Br)cn2)c2ccccc21 | inconclusive: 2.82 µM [activator, single point] | 
CCOC(=O)c1sc(NC(=O)Cc2ccc(C)cc2)nc1C |  | inactive: -1.57%
COc1ccc(C(C)(C)C)cc1NC(=S)NCCN1CCOCC1 | inconclusive: 0.355 µM [activator, partial curve, poor fit] | 
CCNC(=O)CN(c1ccccc1)S(=O)(=O)c1ccc(Cl)cc1 | inconclusive: 15.8 µM [activator, single point] | 
CC1CC(=S)Nc2ccccc2S1 (stereo unspecified) | inconclusive: 7.08 µM [activator, partial curve] | 
Cc1cccc(NC(=O)c2c(O)c3cccc4c3n(c2=O)CCC4)n1 | inconclusive: 3.98 µM [activator, single point] | 
Cc1oc(-c2cccc(F)c2)nc1CN1CCCN(C(=O)c2ccco2)CC1 | inconclusive: 20 µM [activator, single point] | 
COc1cccc(/C=N/Nc2cc(-n3nc(C)cc3-c3ccccc3)ncn2)c1O | inconclusive: 2.51 µM [activator, partial curve] | 
CCN(CC)S(=O)(=O)c1cc(NC(=O)CCNC(=O)c2ccco2)ccc1C | inconclusive: 22.4 µM [activator, partial curve] | 
Cc1nn(-c2ccccc2)c(C)c1-c1nnc(-c2c(C)nn(-c3ccccc3)c2C)o1 |  | inactive: 1.76%
CCOC(=O)c1c(C)nc2c(c1-c1cc(OC)ccc1OC)C(=O)c1ccccc1-2 |  | inactive: 1.09%
O=C(Nc1ccc2c(c1)OCCO2)C1CCN(S(=O)(=O)Cc2ccccc2)CC1 | inconclusive: 3.98 µM [activator, single point] | 
COc1cc(CNc2ccc3[nH]c(=O)[nH]c3c2)ccc1OCc1ccc(F)cc1 | inconclusive: 15.8 µM [activator, single point] | 
NS(=O)(=O)c1cccc(NC(=O)CCSc2ccccc2Cl)c1 | inconclusive: 11.2 µM [activator, single point] | 
C/C=C/Cn1c(SCCCc2ccccc2)nc2c1c(=O)[nH]c(=O)n2C |  | inactive: -2.65%
Cc1cc(/C=C(\C#N)C(=O)NCc2ccco2)c(C)n1C1CCCC1 |  | inactive: -20.2%
Nc1nc(SCC(=O)Nc2ccc3c(c2)CCC3)n[nH]1 | inconclusive: 0.355 µM [activator, partial curve, poor fit] | 
S=c1[nH]cnc2scc(-c3ccc(Br)cc3)c12 | inconclusive: 1.12 µM [activator, partial curve] | 
CNC(=O)N(O)C1N(NC(=O)Nc2cccc3ccccc23)C(=S)SC1(C)C (stereo unspecified) | inconclusive: 20 µM [activator, single point] | 
Cc1ccc(NC(=O)CN(C)C(=O)COC(=O)c2ccc(NC(=O)CC#N)cc2)cc1 |  | inactive: 28.6%

Individual results from the list.
`O=C(Nc1cccc(F)c1)c1ccc(-c2ccccc2C(F)(F)F)o1` | activity, positive = growth rescue: inactive: -43.3%
`CCOc1ccc(N(CC(=O)N2CCCC2)S(=O)(=O)c2ccc(F)cc2)cc1` | Potency: inconclusive: 4.47 µM [activator, single point]

Additional records:

Compound | Potency | activity, positive = growth rescue
Cc1cc(C)c2nc(NCCCNC(=S)NCCCN(C)C)c(C#N)cc2c1 |  | inactive: -4.56%
CCCc1c(C(=O)N/N=C/c2ccc(C)s2)nnn1-c1nonc1N | inconclusive: 11.2 µM [activator, single point] | 
Nc1ccc(C(=O)n2c3ccccc3c3ccccc32)cc1 | inconclusive: 8.91 µM [activator, partial curve, poor fit] | 
O=S(=O)(Nc1ccc(F)cc1)c1cccc2nsnc12 | inconclusive: 0.794 µM [activator, full curve] | 
CC(OC(=O)c1ccc2c(c1)OCO2)C(=O)NC1CCCCC1C (stereo unspecified) |  | inactive: 4.33%
COCCNCc1nc2sc(C)c(-c3ccccc3)c2c(=O)[nH]1 |  | inactive: 0.517%
Cc1onc(-c2ccccc2)c1C(=O)NC(=S)NNC(=O)c1cc(-c2ccc(F)cc2)n[nH]1 |  | inactive: 25.5%
COc1ccc(-c2c/c(=N\c3nc(-c4ccccc4)c(C)s3)c3ccccc3o2)cc1O | inconclusive: 17.8 µM [activator, single point] | 
Cc1cc(C)cc(-n2c(C)cc(/C=C3\C(=N)N4N=C(CC(C)C)SC4=NC3=O)c2C)c1 | inconclusive: 20 µM [activator, partial curve, poor fit] | 
COc1ccc(-n2c(SCC(=O)NCC3CCCO3)nc3c(c2=O)SCC3)cc1OC (stereo unspecified) | inconclusive: 20 µM [activator, single point] | 
COc1ccc(C(=O)NCCC2=CCCCC2)cc1OC1CCN(C(C)C)CC1 | inconclusive: 4.47 µM [activator, single point] | 
Cc1nnc(SCC(=O)NNC(=O)C(C)C)[nH]c1=O | active: 22.4 µM | 
CC(=O)N1c2ccc(S(=O)(=O)NCC3CCC(C(=O)NCc4ccc(C)cc4)CC3)cc2CC1C (stereo unspecified) | inconclusive: 3.98 µM [activator, single point] | 
O=C(c1ccc(O)cc1)c1ccc(C(=O)O)c(C(=O)O)c1 | inconclusive: 12.6 µM [activator, single point] | 
CCOC(=O)c1ccc(N2C(=O)C3C(/C=C/c4ccccc4)OC4(C(=O)c5ccccc5C4=O)C3C2=O)cc1 (stereo unspecified) | inconclusive: 8.91 µM [activator, partial curve] | 
Cc1ccccc1C(=O)NNC(=O)CSc1nnc(C)n1-c1ccccc1 | inconclusive: 4.47 µM [activator, full curve, poor fit] | 
O=C(CCN1C(=O)/C(=C/c2ccc(F)cc2)SC1=S)NC1C=CS(=O)(=O)C1 (stereo unspecified) | inconclusive: 17.8 µM [activator, single point] | 
CC(C(=O)Nc1ccc(O)cc1C(=O)O)N1C(=O)/C(=C\c2cccs2)SC1=S (stereo unspecified) | inconclusive: 20 µM [activator, single point] | 
C#CCOCCOCCOCCNc1nc(N2CCN(C(=O)[C@H](CCCN=C(N)N)n3cc(C(N)[C@@H](C)CC)nn3)CC2)nc(N2CCN(C(=O)[C@H](CCC(=O)O)n3cc([C@@H](N)[C@H](C)CC)nn3)CC2)n1 (stereo partly specified) | inconclusive: 0.355 µM [activator, partial curve, poor fit] | 
COc1cc(CC(=O)Nc2nccs2)cc(OC)c1OC | inconclusive: 1 µM [activator, full curve] | 
Cc1ccc(N(CC(=O)Nc2ccc3c(c2)OCCO3)S(=O)(=O)c2c(C)noc2C)cc1 | inconclusive: 0.447 µM [activator, full curve] | 
O=C(COc1ccc([N+](=O)[O-])cc1)NNC(=O)Nc1ccc([N+](=O)[O-])cc1 | inconclusive: 20 µM [activator, single point] | 
Cc1nc(SCC(N)=O)[nH]c(=O)c1Cc1ccc(OC(C)C)cc1 |  | inactive: -1.69%

Complete entries as entered above:
C/C=C/Cn1c(SCCCc2ccccc2)nc2c1c(=O)[nH]c(=O)n2C as listed: activity, positive = growth rescue: inactive: -2.65%
O=C(COc1ccc([N+](=O)[O-])cc1)NNC(=O)Nc1ccc([N+](=O)[O-])cc1 as listed: Potency: inconclusive: 20 µM [activator, single point]
CC1CC(=S)Nc2ccccc2S1 (stereo unspecified) as listed: Potency: inconclusive: 7.08 µM [activator, partial curve]
